Experimental data reported in article PMC5133908.
Results are given in words; binding and its absence hold for the method and conditions named. Binding seen in cells or lysates may run through a third protein. Some binding calls cover weakened binding; strength is not graded here. Sequences can lack the tags named with a protein.

Molecular target: T1, SEPT12-GFP (human) (UniProt Q8IYM1)
T1 sequence: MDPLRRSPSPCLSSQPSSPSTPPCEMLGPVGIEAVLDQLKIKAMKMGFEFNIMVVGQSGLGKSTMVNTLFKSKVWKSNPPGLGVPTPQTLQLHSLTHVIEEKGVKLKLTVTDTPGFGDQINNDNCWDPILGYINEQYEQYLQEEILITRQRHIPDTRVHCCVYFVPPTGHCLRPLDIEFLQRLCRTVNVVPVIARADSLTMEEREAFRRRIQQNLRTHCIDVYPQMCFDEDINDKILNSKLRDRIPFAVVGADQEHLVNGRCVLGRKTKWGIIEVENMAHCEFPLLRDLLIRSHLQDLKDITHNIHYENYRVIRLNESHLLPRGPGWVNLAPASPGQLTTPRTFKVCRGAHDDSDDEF
Test: co-IP; NT2D1 cells cotransfected with pFLAG-NDC1 and pGFP-SEPT12; lysates immunoprecipitated with anti-GFP antibody (control: nonspecific IgG), immunoblot with anti-FLAG and anti-GFP

- binding: binds
B1: FLAG-NDC1 (protein, UniProt Q9BTX1 1-674)
chain: MATAVSRPCAGRSRDILWRVLGWRIVASIVWSVLFLPICTTVFIIFSRIDLFHPIQWLSDSFSDLYSSYVIFYFLLLSVVIIIISIFNVEFYAVVPSIPCSRLALIGKIIHPQQLMHSFIHAAMGMVMAWCAAVITQGQYSFLVVPCTGTNSFGSPAAQTCLNEYHLFFLLTGAFMGYSYSLLYFVNNMNYLPFPIIQQYKFLRFRRSLLLLVKHSCVESLFLVRNFCILYYFLGYIPKAWISTAMNLHIDEQVHRPLDTVSGLLNLSLLYHVWLCGVFLLTTWYVSWILFKIYATEAHVFPVQPPFAEGSDECLPKVLNSNPPPIIKYLALQDLMLLSQYSPSRRQEVFSLSQPGGHPHNWTAISRECLNLLNGMTQKLILYQEAAATNGRVSSSYPVEPKKLNSPEETAFQTPKSSQMPRPSVPPLVKTSLFSSKLSTPDVVSPFGTPFGSSVMNRMAGIFDVNTCYGSPQSPQLIRRGPRLWTSASDQQMTEFSNPSPSTSISAEGKTMRQPSVIYSWIQNKREQIKNFLSKRVLIMYFFSKHPEASIQAVFSDAQMHIWALEGLSHLVAASFTEDRFGVVQTTLPAILNTLLTLQEAVDKYFKLPHASSKPPRISGSLVDTSYKTLRFAFRASLKTAIYRITTTFGEHLNAVQASAEHQKRLQQFLEFKE
